Values of other authors, collected in US6576633B1, “Stable liquid antimicrobial suspension compositions containing quarternaries prepared from hexamethylenetetramine and certain halohydrocarbons” (The Dow Chemical Company, priority 1996, dated 2003).
Some entries share one result that the patent states for a list of compounds.

Settings: conventional 30 percent aqueous solution

SMILES: ClC=CC[N+]12CN3CN(CN(C3)C1)C2.[Cl-] [cis-compound, 1-(3-chloroallyl)-3,5,7-triaza-1-azoniaadamantane chloride]
- time after admixture until color degrades: less than 24 hours
